Laboratory results reported in patent US20180037654A1.
These are yes or no findings as the source states them, for the method shown. Some results given as binding are weak or reduced against the parent protein; the word gives no strength.

Chains of the proteins cited; added tags and fusions are not shown. Lines headed by an entry give the natural chain unless they say otherwise; changes in a name come on top.
UniProt P16410: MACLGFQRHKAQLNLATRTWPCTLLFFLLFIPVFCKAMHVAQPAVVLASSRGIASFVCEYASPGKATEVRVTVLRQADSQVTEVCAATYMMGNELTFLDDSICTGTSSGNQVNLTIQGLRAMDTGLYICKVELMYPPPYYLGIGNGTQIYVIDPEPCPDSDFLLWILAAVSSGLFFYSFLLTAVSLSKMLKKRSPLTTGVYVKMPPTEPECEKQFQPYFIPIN

Tests used:
human CTLA-4 (human) = human CTLA-4 (human) (UniProt P16410); experiment: CELISA on CHO-K1 cells transiently transfected with human CTLA-4, panel Human
Mouse = experiment: CELISA on CHO-K1 cells transiently transfected with mouse CTLA-4, panel Mouse

- binding (human CTLA-4 (human)): binds
B1: hCTLA4.27A.C4 (antibody, V domains shown)
VH: QVQLQQPGAVLVRPGVSVKLSCKASGYSFTTYWMNWVKQRPGQGLEWIGMIHPSDSETSLNQAFKDKATLTIDKSSSTAYMQLSSPTSEDSAVYFCARMGRRNPYYFDYWGQGTTLTVSS
VL: DIQMTQSPVSLSVSVGETVTITCRPSENLYTNLAWYQQKQGKSPQLLVYGATNLADGVPSRFSGSGSGTQYSLRINSLQSEDFGTYYCQHLWGTPFTFGSGTKLELK
- binding (Mouse): no binding (tested: log nM about 1.8 (about 60 nM))
